These are yes or no findings as the source states them, for the method shown. Some entries that bind do so weakly or less than the wild type. Sequences can lack the tags named with a protein.
Tests used:
[1] = molecular target: T1, human CCX CKR with N-terminal Flag epitope, stably expressed on HEK293 cells (human) (UniProt Q9NPB9); assay: radioligand binding competition on CCX CKR stable transfectants
T1 sequence: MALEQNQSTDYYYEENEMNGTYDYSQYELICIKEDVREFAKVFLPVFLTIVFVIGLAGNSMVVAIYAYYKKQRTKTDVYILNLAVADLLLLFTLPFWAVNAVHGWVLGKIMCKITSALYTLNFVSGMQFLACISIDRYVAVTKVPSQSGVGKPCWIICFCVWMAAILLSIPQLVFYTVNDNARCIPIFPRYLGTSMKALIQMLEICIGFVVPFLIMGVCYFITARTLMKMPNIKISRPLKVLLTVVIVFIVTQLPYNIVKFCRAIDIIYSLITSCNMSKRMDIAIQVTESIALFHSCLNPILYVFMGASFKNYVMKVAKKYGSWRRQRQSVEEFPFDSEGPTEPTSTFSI

Amino acid sequences for entries named in this document (tags omitted). Residues count along the entry.
UniProt P84444, residues 24-133: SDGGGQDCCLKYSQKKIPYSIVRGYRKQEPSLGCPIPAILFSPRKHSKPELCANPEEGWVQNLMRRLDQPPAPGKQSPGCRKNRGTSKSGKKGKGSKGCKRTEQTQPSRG

[2] = molecular target: T1, human CCX CKR with N-terminal Flag epitope, stably expressed on HEK293 cells (human); assay: displacement of 125I-ELC (or 125I-TECK) from CCX CKR stable transfectants, cold chemokine at 200 nM
[3] = molecular target: T2, human CCX CKR with N-terminal Flag epitope, stably expressed on HEK293 cells (human), Q9NPB9; assay: radioligand binding competition on CCX CKR stable transfectants; conditions: remark: other sources report otherwise
T2 chain: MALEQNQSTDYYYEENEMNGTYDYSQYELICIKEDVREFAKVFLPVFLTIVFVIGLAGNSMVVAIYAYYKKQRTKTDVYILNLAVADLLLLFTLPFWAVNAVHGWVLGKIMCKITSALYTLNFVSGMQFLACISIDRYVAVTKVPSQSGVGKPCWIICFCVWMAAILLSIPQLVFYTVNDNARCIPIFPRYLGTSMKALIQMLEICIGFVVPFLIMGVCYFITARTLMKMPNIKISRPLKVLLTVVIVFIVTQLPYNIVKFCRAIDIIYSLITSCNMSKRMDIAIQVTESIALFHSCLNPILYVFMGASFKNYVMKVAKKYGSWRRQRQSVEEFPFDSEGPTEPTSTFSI

[4] = molecular target: T2, human CCX CKR with N-terminal Flag …; assay: displacement of 125I-ELC (or 125I-TECK) from CCX CKR stable transfectants, cold chemokine at 200 nM; conditions: remark: other sources report otherwise

Molecule	binding [1]	binding [2]	binding [3]	binding [4]
murine SLC (from UniProt P84444 24-133) (ligand)	binds	binds		
BLC (B-lymphocyte chemoattractant), O43927 23-109 (ligand, UniProt O43927 23-109, looked up) VLEVYYTSLRCRCVQESSVFIPRRFIDRIQILPRGNGCPRKEIIVWKKNKSIVCVDPQAEWIQRMMEVLRKRSSSTLPVPVFKRKIP			binds	binds
vMIPII from the human Kaposi's sarcoma herpesvirus HHV8 (ligand) LGASWHRPDKCCLGYQKRPLPQVLLSSWYPTSQLCSKPGVIFLTKRGRQVCADKSKDWVKKLMQQLPVTAR	binds	binds		

— patent USRE39849 (CHEMOCENTRYX, dated 2007)
